Measurements: paper PMC11982375

By UniProt entry, the sequences of proteins in these tests, tags left out.
UniProt Q86Y07: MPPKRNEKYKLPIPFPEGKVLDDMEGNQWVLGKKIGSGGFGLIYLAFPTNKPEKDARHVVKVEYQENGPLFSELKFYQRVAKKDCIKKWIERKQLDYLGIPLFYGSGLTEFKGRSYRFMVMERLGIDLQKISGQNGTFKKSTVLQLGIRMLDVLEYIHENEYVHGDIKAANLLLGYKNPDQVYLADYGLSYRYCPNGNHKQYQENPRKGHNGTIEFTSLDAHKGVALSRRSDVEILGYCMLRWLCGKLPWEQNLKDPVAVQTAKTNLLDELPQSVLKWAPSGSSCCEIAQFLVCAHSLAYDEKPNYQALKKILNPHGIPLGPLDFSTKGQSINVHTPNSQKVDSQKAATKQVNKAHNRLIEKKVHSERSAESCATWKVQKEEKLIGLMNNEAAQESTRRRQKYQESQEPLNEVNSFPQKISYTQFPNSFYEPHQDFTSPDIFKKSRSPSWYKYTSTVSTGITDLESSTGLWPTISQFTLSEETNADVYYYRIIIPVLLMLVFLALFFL
UniProt Q13283: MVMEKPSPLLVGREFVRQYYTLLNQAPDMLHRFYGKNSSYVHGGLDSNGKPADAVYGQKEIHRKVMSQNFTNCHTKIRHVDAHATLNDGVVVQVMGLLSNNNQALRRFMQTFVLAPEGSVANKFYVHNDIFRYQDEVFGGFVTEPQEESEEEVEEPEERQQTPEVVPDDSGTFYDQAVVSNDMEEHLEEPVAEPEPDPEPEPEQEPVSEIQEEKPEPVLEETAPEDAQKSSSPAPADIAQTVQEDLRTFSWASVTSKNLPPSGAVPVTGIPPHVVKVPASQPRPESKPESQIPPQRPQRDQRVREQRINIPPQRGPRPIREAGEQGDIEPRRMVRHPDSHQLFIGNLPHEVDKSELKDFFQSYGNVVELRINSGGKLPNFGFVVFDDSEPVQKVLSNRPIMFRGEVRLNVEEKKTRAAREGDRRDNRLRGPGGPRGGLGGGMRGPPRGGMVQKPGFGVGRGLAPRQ

Molecular target: Flag-VRK2 (human) (UniProt Q86Y07)
Test: affinity purification with mass spectrometry; immunoprecipitation of Flag-VRK2 with Flag antibody followed by mass spectrometry analysis; cells not given

binding: binds
Substance: G3BP1 (found by mass spectrometry in the Flag-VRK2 immunoprecipitate) (from UniProt Q13283 1-466)

No constants are given. Whether binding was seen depends on the method and setting. In cells and extracts the contact can be indirect. These calls come from enrichment with a bait or labelling near it, and not all partners need be listed.
